According to patent US6399827B1, “Quaternary ammonium phosphate compound and method of preparing same” (SK Chemicals, priority 1997, dated 2002):

Key:
Conditions in all cases: rate of corrosion from weight loss after 42 hours; test material 20 ppm, pH 8.5, 40° C., 15 ppm magnesium hardness, aerated, 150 rpm
[1] = Anticorrosive effect test, cast iron
[2] = Anticorrosive effect test, copper
[3] = Anticorrosive effect test, tinning steel plate
[4] = Anticorrosive effect test, carbon steel

Structure (SMILES)	Anticorrosive effect (mpy) cast iron [1]	Anticorrosive effect (mpy) copper [2]	Anticorrosive effect (mpy) tinning steel [3]	Anticorrosive effect (mpy) carbon steel [4]
CC(C)(C)CC(C)(C)c1ccc(OCCOCC[N+](C)(C)Cc2ccccc2)cc1.O=P([O-])(O)O [example 1, N-dimethyl-N-[p-(α,α,γ,γ)-tetramethylbutylphenoxy]ethoxy ethyl-N-benzyl ammonium phosphate]	1.3 mpy	0.1 mpy	0.1 mpy	4.5 mpy
CC(C)(C)CC(C)(C)c1ccc(OCCOCC[N+](C)(C)Cc2ccccc2)cc1.[Cl-] [A, N-dimethyl-N-[p-(α,α,γ,γ)-tetramethylbutylphenoxy]ethoxy ethyl-N-benzyl chloride]	6.5 mpy	0.5 mpy	0.5 mpy	7.2 mpy
